{"sequences": {"note": "By UniProt entry, the sequences of proteins in these tests, tags left out. Where a name states a change or a piece, a line headed by the entry shows the natural chain unless it says otherwise.", "UniProt P11473": "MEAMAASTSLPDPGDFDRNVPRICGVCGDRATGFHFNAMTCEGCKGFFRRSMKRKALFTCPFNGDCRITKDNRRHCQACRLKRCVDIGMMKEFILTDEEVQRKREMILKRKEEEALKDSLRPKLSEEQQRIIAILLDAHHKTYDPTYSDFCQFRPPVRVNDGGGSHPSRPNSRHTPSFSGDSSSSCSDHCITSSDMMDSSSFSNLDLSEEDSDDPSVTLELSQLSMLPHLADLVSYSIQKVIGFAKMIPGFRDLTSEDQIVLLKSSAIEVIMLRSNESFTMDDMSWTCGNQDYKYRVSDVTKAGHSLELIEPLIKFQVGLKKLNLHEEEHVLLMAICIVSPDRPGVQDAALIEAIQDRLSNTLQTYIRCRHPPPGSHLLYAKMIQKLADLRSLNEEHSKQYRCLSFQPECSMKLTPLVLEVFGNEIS"}, "source": "PubChem BioAssay AID504847", "about": "(National Center for Advancing Translational Sciences (NCATS), 2011)", "note": "The whole screen tested about 400,000 compounds, of which about 3,700 (0.93%) were called active. The shares of active, inactive and inconclusive entries below differ from those in the screen. The call rests on the fitted dose curve; in most records, active means well fitted inhibition curve with a large enough effect; inconclusive means small, poorly fitted or top-dose-only effect, or another doubt; inactive means no such curve, though single readings can be large or run the other way. Potencies of inconclusive entries are doubtful fits and often do not repeat. On the % scale 0 is the no-effect control and ±100 the full control effect; potency means the concentration at half of the fitted maximal effect."}
{"molecular_target": "Vitamin D3 receptor (Homo sapiens) (UniProt P11473)", "experiment": "Inhibitors of the vitamin D receptor (VDR): qHTS", "details": "VDR-SRC2-3 peptide fluorescence polarization, 2 h; max response, negative = inhibition: stronger effect = lower value", "method_in_brief": "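Fluorescence polarization assay of small-molecule disruption of VDR binding to coregulator peptide SRC2-3. Compounds and controls pin-transferred, then read after 2 h incubation at ambient room temperature.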"}
{"smiles": "O=C(O)c1ccc(COc2ccc3c4c(c(=O)oc3c2)CCC4)o1", "max response, negative = inhibition": "inactive: 12.9%"}
{"smiles": "Cc1c(C(=O)c2cccc([N+](=O)[O-])c2)c2ccccn2c1CCC#N", "Potency": "inconclusive: 89.1 µM [inhibitor, single point]"}
{"smiles": "CO[C@]1(NC(=O)CSCC#N)C(=O)N2C(C(=O)O)=C(CSc3nnnn3C)CS[C@H]21", "Potency": "inconclusive: 35.5 µM [inhibitor, partial curve, poor fit]"}
{"smiles": "CCOc1cccc(-c2c(C(=O)N/N=C/c3ccoc3)nnn2-c2nonc2N)c1", "Potency": "inconclusive: 39.8 µM [inhibitor, partial curve, poor fit]"}
{"smiles": "Cc1cc(-c2n[nH]c(=S)n2Cc2ccco2)nn1C", "Potency": "inconclusive: 100 µM [inhibitor, single point]"}
{"smiles": "Cc1c(NC(=O)c2cccs2)cccc1-c1nc2cc(Cl)ccc2o1", "max response, negative = inhibition": "inactive: 3.29%"}
{"smiles": "O=C(COC(=O)c1ccc([N+](=O)[O-])o1)Nc1ccc(Br)cc1F", "max response, negative = inhibition": "inactive: -15.1%"}
{"smiles": "CCOc1ccc(NC(=O)c2nc(S(=O)(=O)Cc3ccccc3F)ncc2Cl)cc1", "Potency": "inconclusive: 17.8 µM [inhibitor, partial curve, poor fit]"}
{"smiles": "CC(C)(C)c1ccc(C2(C)NC(=O)N(CC(=O)NC3CCS(=O)(=O)C3)C2=O)cc1", "note": "(stereo not given)", "Potency": "inconclusive: 100 µM [inhibitor, single point]"}
{"smiles": "O=C(NCCCN1CCN(c2ccccc2F)CC1)c1ccc2nc(CCc3ccccc3)oc2c1", "max response, negative = inhibition": "inactive: 2.03%"}
{"smiles": "COc1ccc(CN=Cc2[nH]c3ccc(Br)c(Cl)c3c2O)cc1", "Potency": "inconclusive: 89.1 µM [inhibitor, single point]"}
{"smiles": "Cn1c(=O)c2[nH]c(N=NNc3ccccc3F)nc2n(C)c1=O", "Potency": "active: 79.4 µM"}
{"smiles": "COc1cccc(NC(=O)Cn2c(=O)n(Cc3ccc(F)cc3)c(=O)c3sc4ccccc4c32)c1", "max response, negative = inhibition": "inactive: -10.4%"}
{"smiles": "NC(=O)CC[C@H](NC(=O)c1ccc(F)cc1)C(=O)OCC(=O)Nc1c(F)c(F)c(F)c(F)c1F", "max response, negative = inhibition": "inactive: 0.184%"}
{"smiles": "CN(C)c1ccc(-c2cncnc2N(C)Cc2ccco2)cc1", "Potency": "inconclusive: 44.7 µM [inhibitor, partial curve]"}
{"smiles": "CC(C)c1ccc(NC2CCCN(C(=O)c3ccoc3)C2)cc1", "note": "(stereo not given)", "max response, negative = inhibition": "inactive: -10.9%"}
{"smiles": "N#C/C(=C\\c1cccc(NC(=O)c2ccccc2Cl)c1)C(=O)NCCc1ccccc1", "Potency": "inconclusive: 17.8 µM [inhibitor, full curve]"}
{"smiles": "O=c1[nH]c(CN2CCN(C/C=C/c3ccccc3)CC2)nc2ccccc12", "max response, negative = inhibition": "inactive: -13.3%"}
{"smiles": "CC(=O)c1ccc(NC(=O)CN2C(=O)/C(=C/C(C)=C/c3ccccc3)SC2=S)cc1", "max response, negative = inhibition": "inactive: -3.48%"}
{"smiles": "Nc1ccc(S(=O)(=O)Nc2nccs2)cc1N=Nc1ccccc1[N+](=O)[O-]", "Potency": "inconclusive: 70.8 µM [inhibitor, single point]"}
{"smiles": "Cc1ccc(C(=O)Nc2cc(-c3cn4cccnc4n3)ccc2C)cc1C", "max response, negative = inhibition": "inactive: 11.9%"}
{"smiles": "Cc1ccc(/C=C/C(=O)N2CCN(c3ncccn3)CC2)o1", "Potency": "inconclusive: 25.1 µM [inhibitor, full curve, poor fit]"}
{"smiles": "COc1ccccc1C(CNC(=O)c1cccc(S(=O)(=O)N2c3ccccc3CC2C)c1)N(C)C", "note": "(stereo not given)", "max response, negative = inhibition": "inactive: 3.42%"}
{"smiles": "N#C/C(=C(/O)CO/N=C/c1ccccc1Cl)c1nc2ccccc2[nH]1", "max response, negative = inhibition": "inactive: -3.34%"}
{"smiles": "CCOC(=O)c1ccc(-n2c(CCC(=O)O)ccc2-c2ccccc2)cc1O", "Potency": "inconclusive: 79.4 µM [inhibitor, single point]"}
{"smiles": "CC(=O)N1CCCC(N2CCN(c3cccc(C(F)(F)F)c3)CC2)C1", "note": "(stereo not given)", "Potency": "inconclusive: 89.1 µM [inhibitor, partial curve, poor fit]"}
{"smiles": "CCOC(=O)c1sc(N(Cc2ccccc2)C(=O)CCl)nc1C", "Potency": "inconclusive: 50.1 µM [inhibitor, partial curve, poor fit]"}
{"smiles": "O=C(NCCN1CCOCC1)c1ccc2c(c1)N(Cc1ccccc1)CCS2", "Potency": "inconclusive: 89.1 µM [inhibitor, single point]"}
{"smiles": "CCOC(=O)/C(=N\\Nc1cc(C(F)(F)F)ccc1Cl)N(CC)CC", "Potency": "inconclusive: 12.6 µM [inhibitor, partial curve, poor fit]"}
{"smiles": "O=C(COC(=O)c1ccccc1F)Nc1cccnc1Cl", "max response, negative = inhibition": "inactive: 8.63%"}
{"smiles": "O=C(NCC(c1ccc2c(c1)OCO2)N1CCN(c2ccccc2)CC1)c1ccc(F)c(F)c1", "note": "(stereo not given)", "max response, negative = inhibition": "inactive: 12.4%"}
{"smiles": "CCOC(=O)c1cc(-c2nnc(SCC(=O)Nc3ccc(F)cc3)o2)c(C)nc1C", "Potency": "inconclusive: 89.1 µM [inhibitor, single point]"}
{"smiles": "O=C1NC(c2ccccc2)N=C2Oc3ccccc3C=C12", "note": "(stereo not given)", "Potency": "inconclusive: 89.1 µM [inhibitor, single point]"}
{"smiles": "COc1cc(OC)cc(C(=O)NC(=S)N2CCCCCC2)c1", "Potency": "inconclusive: 89.1 µM [inhibitor, partial curve, poor fit]"}
{"smiles": "O=C1/C(=C/c2ccc(F)cc2)SC(=S)N1Nc1ncc(C(F)(F)F)cc1Cl", "Potency": "inconclusive: 56.2 µM [inhibitor, partial curve, poor fit]"}
{"smiles": "COc1ccc2c(c1)OC/C(=C/c1ccc(O)c(O)c1)C2=O", "Potency": "inconclusive: 39.8 µM [inhibitor, full curve]"}
{"smiles": "O=C(CNCCc1ccc(F)cc1)Nc1cc(F)ccc1F", "max response, negative = inhibition": "inactive: 15.7%"}
{"smiles": "O=C(CNC(=O)c1ccco1)OCC(=O)c1cccc2ccccc12", "max response, negative = inhibition": "inactive: 19.2%"}
{"smiles": "O=C1c2cccc3c(O)ccc(c23)C(=O)N1Cc1ccco1", "Potency": "inconclusive: 89.1 µM [inhibitor, partial curve, poor fit]"}
{"smiles": "N#CC1=C(N)C2=C(N3CCCCC3)CCCC2C1(C#N)C#N", "note": "(stereo not given)", "Potency": "inconclusive: 56.2 µM [inhibitor, partial curve, poor fit]"}
{"smiles": "O=c1[nH]cnc2c1ncn2[C@H]1C[C@H](O)[C@@H](CO)O1", "Potency": "inconclusive: 8.91 µM [inhibitor, full curve, poor fit]"}
{"smiles": "O=C1N[C@@H](Cc2cn(S(=O)(=O)c3ccc([N+](=O)[O-])cc3)c3ccccc23)C(=O)N[C@H]1Cc1ccccc1", "max response, negative = inhibition": "inactive: -6.67%"}
{"smiles": "O=S(=O)(c1ccc(OC(F)(F)F)cc1)N1CCN(c2nc(-c3cccs3)nc3ccccc23)CC1", "max response, negative = inhibition": "inactive: -10.4%"}
{"smiles": "[O-]/C(=C(\\C(=S)Nc1ccc(Cl)cc1)[n+]1ccccc1)c1ccc(OC(F)F)cc1", "Potency": "inconclusive: 89.1 µM [inhibitor, single point]"}
{"smiles": "CCn1nc(C)c(CNC(=O)c2cc(COc3cncc(Cl)c3)on2)c1C", "Potency": "inconclusive: 39.8 µM [inhibitor, single point]"}
{"smiles": "COc1ccc(OC)c(/C=C/c2[nH]c(=O)[nH]c(=O)c2[N+](=O)[O-])c1", "Potency": "inconclusive: 22.4 µM [inhibitor, full curve, poor fit]"}
{"smiles": "COc1ccc2c(c1)O[C@@H](c1ccc3c(c1)OCO3)[C@H](OC(=O)NCc1ccc3c(c1)OCO3)C2=O", "max response, negative = inhibition": "inactive: 5.69%"}
{"smiles": "COc1ccc(CCNC(=O)/C(C#N)=C/c2cccc(OCc3ccccc3)c2)cc1OC", "Potency": "inconclusive: 35.5 µM [inhibitor, partial curve]"}
{"smiles": "Cc1ccc(S(=O)(=O)n2nc(OC(=O)c3ccccc3F)cc2N)cc1", "Potency": "inconclusive: 56.2 µM [inhibitor, partial curve, poor fit]"}
{"smiles": "CC1=C(C(=O)c2ccccc2)C(c2cn(-c3ccccc3)nc2-c2ccc(Cl)cc2)NC(=S)N1", "note": "(stereo not given)", "Potency": "inconclusive: 89.1 µM [inhibitor, single point]"}
{"smiles": "O=C(Oc1cccnc1)c1cc(S(=O)(=O)N2CCOCC2)ccc1Cl", "Potency": "inconclusive: 70.8 µM [inhibitor, partial curve, poor fit]"}
{"smiles": "CC(/C=C/c1ccccc1)=N/NC(=O)c1cc([N+](=O)[O-])cc([N+](=O)[O-])c1", "max response, negative = inhibition": "inactive: -16.8%"}
{"smiles": "CC(C)NCc1c(O)c(Br)cc2oc3c(c12)CCCC3", "Potency": "inconclusive: 0.708 µM [inhibitor, partial curve, poor fit]"}
{"smiles": "Oc1ccc(N2CCN(Cc3nc4ccccc4[nH]3)CC2)cc1", "max response, negative = inhibition": "inactive: 3.15%"}
{"smiles": "CC1(C)OC(=O)C(=Cc2ccc(-c3ccc(Cl)c(C(=O)O)c3)o2)C(=O)O1", "Potency": "inconclusive: 50.1 µM [inhibitor, partial curve, poor fit]"}
{"smiles": "CC(C)C(C(=O)Nc1ccncc1)c1ccc(Cl)cc1", "note": "(stereo not given)", "max response, negative = inhibition": "inactive: -14.8%"}
{"smiles": "N#CC1=C(SCc2ccccc2)NC2=C(C(=O)CCC2)C1c1ccc2c(c1)OCO2", "note": "(stereo not given)", "Potency": "inconclusive: 79.4 µM [inhibitor, partial curve, poor fit]"}
{"smiles": "Cc1cc(NC(=O)c2cc(-c3ccccc3Cl)nc3ccccc23)no1", "max response, negative = inhibition": "inactive: 11.5%"}
{"smiles": "CN(Cc1ccco1)c1ncnc2ccc(-c3cccc(C#N)c3)cc12", "Potency": "inconclusive: 50.1 µM [inhibitor, partial curve]"}
{"smiles": "COc1ccc(C=CC(=O)c2ccc(OC)c(OC)c2O)cc1OC", "Potency": "inconclusive: 39.8 µM [inhibitor, single point]"}
{"smiles": "O=c1cc(N=Nc2ccc(Cl)cc2)[nH]c(=O)[nH]1", "Potency": "inconclusive: 3.55 µM [inhibitor, full curve, poor fit]"}
{"smiles": "COc1ccc(C2Nc3ccccc3C(=O)N2NS(C)(=O)=O)c(OC)c1", "note": "(stereo not given)", "Potency": "inconclusive: 89.1 µM [inhibitor, single point]"}
{"smiles": "O=C(O)C1CCN(C(=O)CSc2nc3ccccc3s2)CC1", "Potency": "inconclusive: 14.1 µM [inhibitor, partial curve, poor fit]"}
{"smiles": "CCC(CC)NCC(O)COc1ccc(Br)cc1", "note": "(stereo not given)", "max response, negative = inhibition": "inactive: -18.5%"}
{"smiles": "Cc1cnc(CNc2cc(-c3ccc(N(C)C)cc3)ncn2)cn1", "Potency": "inconclusive: 35.5 µM [inhibitor, partial curve, poor fit]"}
